Tested on: mice
Test: Efficacy-risk indexes calculated from formalin paw test, rotarod test and sedation
Assay type: in vivo
Details: for Efficacy-Risk (motor impairment × sedation) Index: Efficacy-Risk (Motor) Index / % sedation; for Efficacy-Risk (motor) Index: licking time (s) at 100 mg/kg / rotarod ED50 (mg/kg); for Efficacy-Risk (sedation) Index: licking time (s) at 100 mg/kg / sedation (%) at 300 mg/kg; for Safety margin over carbamazepine, Efficacy-Risk (motor impairment × sedation) Index / Safety margin over carbamazepine, Efficacy-Risk (motor) Index / Safety margin over carbamazepine, Efficacy-Risk (sedation) Index: ratio to carbamazepine index; for Safety margin over oxcarbazepine, Efficacy-Risk (motor impairment × sedation) Index / Safety margin over oxcarbazepine, Efficacy-Risk (motor) Index / Safety margin over oxcarbazepine, Efficacy-Risk (sedation) Index: ratio to oxcarbazepine index

SMILES | Efficacy-Risk (motor impairment × sedation) Index | Efficacy-Risk (motor) Index | Efficacy-Risk (sedation) Index | Safety margin over carbamazepine, Efficacy-Risk (motor impairment × sedation) Index | Safety margin over carbamazepine, Efficacy-Risk (motor) Index | Safety margin over carbamazepine, Efficacy-Risk (sedation) Index | Safety margin over oxcarbazepine, Efficacy-Risk (motor impairment × sedation) Index | Safety margin over oxcarbazepine, Efficacy-Risk (motor) Index | Safety margin over oxcarbazepine, Efficacy-Risk (sedation) Index | Efficacy-Risk (motor) Index relative to that observed for CBZ (mouse, in vivo) [fold]
NC(=O)N1c2ccccc2CC(=O)c2ccccc21 [Oxc, oxcarbazepine, reference compound] | 0.000 | 0.02 | 0.01 | 0.1 | 0.1 | 0.2 | 1.0 | 1.0 | 1.0 | 
NC(=O)N1c2ccccc2C=Cc2ccccc21 [CBZ, carbamazepine, reference compound] | 0.002 | 0.18 | 0.05 | 1.0 | 1 | 1.0 | 8.1 | 9.0 | 4.8 | 
CC(=O)O[C@H]1Cc2ccccc2N(C(N)=O)c2ccccc21 [ESL, S-(−)-10-acetoxy-10,11-dihydro-5H-dibenz/b,f/azepine-5-carboxamide] | 0.024 | 0.24 | 3.36 | 13.5 | 1.4 | 63.4 | 109.1 | 12.1 | 302.4 | 1.4
NC(=O)N1c2ccccc2C[C@@H](O)c2ccccc21 [R-Lic, R-licarbazepine] | 0.019 | 0.38 | 1.84 | 10.6 | 2.1 | 34.6 | 85.1 | 18.9 | 165.2 | 

Reference: patent US20090209517A1, “Use of 5H-dibenz/b,f/azepine-5-carboxamide derivatives in the treatment of neuropathic pain and neurological disorders” (priority 2006, published 2009)
